The test system of assay [1] is excretion of phenol red (secretory function of the respiratory tract). Description: Effect on excretion of phenol red in mice. It is filed as in vivo, Kunming mice. As to the method: Kunming mice, female:male 1:1, weight 30-40 g, available from Guangdong Medical Laboratory Animal Center. […] Hitachi 3010 UV and visible spectrophotometer. […] After 30 min, the mice were sacrificed, and the trachea was detached. A section of the trachea from the thyroid cartilage to a branch of the trachea was excised, and placed in a test tube containing 3 ml of saline, to which 0.1 ml of a 15% sodium bicarbonate solution was then added. After centrifugation, the supernatant was taken and measured for the OD value at 546 nm. The phenol red content was calculated from a phenol red standard curve. […] If the drug can improve the secretory function of the respiratory tract, the excretion of phenol red can be enhanced.

Assay [2] relates to citric acid induced cough. The assay can be described thus: Inhibition on citric acid induced cough in guinea pig. It is filed as in vivo, Hartley guinea pigs. The method, then:
1.1 Test animals: qualified Hartley guinea pigs, weight 250-300 g, female:male 1:1, available from Guangdong Medical Laboratory Animal Center.
1.3 Instrument: YLS-8A cough and asthma inducing instrument (a product available from Equipment Station of Shandong Academy of Medical Sciences).
The guinea pigs in each group were administered by oral gavage at a dosage of 0.5 ml/100 g of body weight, and equal volume of saline was given to the animals in the blank control group. 1 h after administration by oral gavage, the animals received spray of citric acid for 7 min. After the spray was completed, the cough counts were observed and recorded in ten minutes from the start of the spray (the typical cough is loud and clear and often accompanied by a forward rush).

Where a name gives a salt, the structure may show the parent alone.

For `O=C(O)COCCN1CCN([C@H](c2ccccc2)c2ccc(Cl)cc2)CC1` [Levocetirizine hydrochloride, levocetirizine hydrochloride], in assay [1], the “Effect on excretion of phenol red / sputum reducing effect (in words)” value is “obviously enhance the excretion of phenol red”. The Phenol red concentration in assay [1] (oral gavage 2 days, trachea wash 30 min after i.p. phenol red, n = 10) is reported as 1.13 ± 0.64 ^ μg/ml. Further, the “Cough relieving effect (in words)” value in assay [2] (citric acid induced cough) is reported as “obvious cough relieving effect”. In addition, the Cough count in assay [2] (oral gavage, citric acid spray 7 min 1 h after dosing, coughs in ten minutes, n = 8) was 26.3 ± 7.1 ^.
